# This is one part of the list.
# System: SARS-CoV-2 5_SL8 RNA
# Experiment: NMR binding call after quantification (hit when 2 of 3 NMR criteria are met) (binary (1 = binding, 0 = not binding)); higher = binding
# Settings: RNA concentration 10 µM; fragment concentration 200 µM; 293 K
row,Structure (SMILES),NMR binding call
1,COCC(=O)Nc1nnc(C)s1,0
2,CCN(C)C(=O)c1cccc(N)c1,1
3,O=C(COc1ccccc1)Nc1cccc(F)c1,0
4,CN(C)C(=O)OCCn1ccnc1,0
5,COc1ccc(C(=O)NCC(N)=O)cc1,0
6,CC(C)C(N)C(=O)N1CCOCC1 (centres undefined),0
7,CCOC(=O)CN1CCS(=O)(=O)CC1,0
8,CN(C)C(=O)c1ccc(F)cc1Br,0
9,Oc1cccc(CN2CCSCC2)c1,0
10,Nc1ccccc1N1CCOCC1,0
11,c1cc(NCC2CCCO2)ccn1 (centres undefined),0
12,CNCc1cccc(OC)n1,0
13,CN1CCC(Oc2cccc(F)c2)C1=O (centres undefined),0
14,CC(=O)N1CCCC(O)(C(=O)O)C1 (centres undefined),0
15,c1coc(CNc2nc3ccccc3[nH]2)c1,0
16,CC1CCCCN1CCN (centres undefined),0
17,CN1CCN(C(=O)C2CCCN2)CC1 (centres undefined),0
18,CNCC(=O)Nc1cc(C)ccn1,0
19,CC(=O)NC(C(=O)O)C1CCOCC1 (centres undefined),0
20,CC1COCCN1Cc1ccccc1F (centres undefined),0
21,CCNCc1cn(C)nn1,0
22,COc1ccc2sc(N)nc2c1,0
23,CCOc1c(F)cccc1C(=O)N(C)C,0
24,CCC(=O)NC1CCNC1 (centres undefined),0
25,Cc1ncsc1C(=O)N1CCCNCC1.Cl.Cl,0
26,CC(O)COc1cccc(F)c1 (centres undefined),0
27,OC1CCN(Cc2ccc(Cl)cc2)C1 (centres undefined),0
28,Cc1sc2ncnc(N(C)C)c2c1C,0
29,CC(NC(=O)C1CCCC1)C(=O)O (centres undefined),0

# Looked up above.
# In NMR binding call, CNCc1cccc(OC)n1 reads 0
# In NMR binding call, CN(C)C(=O)OCCn1ccnc1 reads 0

# — the supplement of paper PMC8426693
